Screening data, single-dose tests

Amino acid sequences for entries named in this document (tags omitted). Residues count along the entry.
UniProt P9WNZ1, whole entry: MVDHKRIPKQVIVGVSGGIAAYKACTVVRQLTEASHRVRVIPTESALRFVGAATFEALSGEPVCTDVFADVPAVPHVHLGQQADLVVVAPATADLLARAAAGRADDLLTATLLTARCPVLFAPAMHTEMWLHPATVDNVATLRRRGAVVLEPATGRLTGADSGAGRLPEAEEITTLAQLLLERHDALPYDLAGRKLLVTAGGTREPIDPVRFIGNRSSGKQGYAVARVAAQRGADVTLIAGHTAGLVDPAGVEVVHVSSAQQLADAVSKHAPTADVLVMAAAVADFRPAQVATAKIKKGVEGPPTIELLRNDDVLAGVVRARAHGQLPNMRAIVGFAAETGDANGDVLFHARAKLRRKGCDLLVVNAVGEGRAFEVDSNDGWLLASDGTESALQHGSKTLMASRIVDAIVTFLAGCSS
UniProt A4I591, 1-473: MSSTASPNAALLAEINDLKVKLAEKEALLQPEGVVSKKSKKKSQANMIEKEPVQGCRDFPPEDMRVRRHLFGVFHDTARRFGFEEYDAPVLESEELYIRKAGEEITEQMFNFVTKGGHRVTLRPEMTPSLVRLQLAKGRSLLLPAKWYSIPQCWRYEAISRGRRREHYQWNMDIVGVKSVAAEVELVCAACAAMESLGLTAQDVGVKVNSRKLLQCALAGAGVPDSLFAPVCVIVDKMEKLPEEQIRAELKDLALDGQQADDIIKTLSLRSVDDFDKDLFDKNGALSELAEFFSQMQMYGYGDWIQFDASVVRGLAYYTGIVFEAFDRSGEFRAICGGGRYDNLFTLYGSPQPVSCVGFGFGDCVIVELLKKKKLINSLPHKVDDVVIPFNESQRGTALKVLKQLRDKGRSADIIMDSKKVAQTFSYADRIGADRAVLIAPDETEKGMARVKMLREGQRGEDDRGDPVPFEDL

Source: ChEMBL document CHEMBL3988442, “University of Dundee, Small-Polar-MMV Screening Library” (2021).

CoaBC: 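Enzyme assay of CoaBC with a phosphate dye (Biomol Green) read at 650 nm. Target: Coenzyme A biosynthesis protein CoaBC, Mycobacterium tuberculosis (UniProt P9WNZ1). Tested at 30 µM. Direction is inferred from only a few compounds that gave an IC50; most scored high, so higher reads as stronger inhibition. Most strong results did not repeat in a second test. Of about 67,000 compounds tested this way, about 40 (0.06%) reached 50% or more in at least one test.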
LiHisRS: 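Enzyme assay of histidyl-tRNA synthetase; the read-out is not stated. Target: Histidine-tRNA ligase, Leishmania infantum (UniProt A4I591). Compounds at 30 µM. Higher reads as stronger inhibition (inferred: compounds with an IC50 in retests scored well above the rest). The assay is labelled LdHisRS but filed under L. infantum. About 69,000 compounds were tested under these conditions; 0.6% (about 410) showed 50% or more at least once.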
Leishmania in macrophages: 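Cell assay of Leishmania donovani living inside macrophages; the read-out is not stated. Compounds at 30 µM. Direction is inferred from retests: higher values go with stronger inhibition. Of about 69,000 compounds tested this way, about 1,000 (1.5%) reached 50% or more in at least one test.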

Each number is a percent effect as filed. How 0% and 100% were set is not recorded. Most values in the screen are low, and negative values occur. The compounds are a random part of those screened. Two or more numbers in one place are separate tests of the same structure; such repeats can differ widely. A dash means the value is not listed here; it may have been measured.

- CCOCC1CCN(C(=O)C(c2ccccc2F)N(C)C)CC1 (centres undefined) | CoaBC: 7.407% and 50.36%; LiHisRS: 37.7%; Leishmania in macrophages: 31.73%
- Cl.Cn1nc(C2CCCN(Cc3cccc(F)c3)C2)c2nccnc21 (centres undefined) | Leishmania in macrophages: 28.88%
- COc1ccccc1-c1nnc2n1NC(N)=C(C#N)S2 | CoaBC: 4.304%; LiHisRS: 10.53%; Leishmania in macrophages: -15.39% and 10.92%
- O=C(O)C(F)(F)F.O=C(O)C(F)(F)F.O=C(O)C(F)(F)F.[H][C@@]12CCC(=O)N(Cc3cccc(C)n3)[C@]1([H])CCN2Cc1cccnc1 | Leishmania in macrophages: -26.24%
- Cc1csc(N2CCN(CCc3ccccn3)CC2C)n1 (centres undefined) | CoaBC: 6.183%; LiHisRS: 9.615%; Leishmania in macrophages: 37.73%
- CSc1ncccc1C(=O)NCc1ccc(N(C)C)cc1 | CoaBC: -0.7282%; LiHisRS: 1.98%; Leishmania in macrophages: 18.36%
- COc1ccc2c(c1)CN(Cc1nc3c(cnn3C)c(=O)[nH]1)CC2 | CoaBC: -4.113%; LiHisRS: 12.36%; Leishmania in macrophages: 36.2%
- Cn1cc(C(=O)N2CCCC(c3cc(O)n(C)n3)C2)cn1 (centres undefined) | CoaBC: 2.206%; LiHisRS: 9.375%; Leishmania in macrophages: 7.471%
- O=C(O)C(F)(F)F.[H][C@@]12CN(Cc3nccs3)CCC[C@]1(C(=O)OCC)CN(S(C)(=O)=O)C2 | Leishmania in macrophages: -11.78% and -6.548%
- CN(Cc1cccnc1)[C@@H]1CN(C(=O)c2ccoc2)[C@@H]2CCCO[C@H]12 | CoaBC: 4.069%; LiHisRS: -1.389%
- CCOC1COC2(CCN(Cc3ccco3)CC2)C1 (centres undefined) | CoaBC: -0.2545%; LiHisRS: 7.767%
- CSCC(=O)N1CCOC(c2nc(C(C)(C)C)n[nH]2)C1 (centres undefined) | CoaBC: 6.197%; LiHisRS: 19.57%; Leishmania in macrophages: 14.68%
- CCc1nnc2n1CCN(C(=O)Cc1nc(-c3ccco3)oc1C)C2 | CoaBC: 2.362%; LiHisRS: 1.695%; Leishmania in macrophages: -4.138%
- CC(CCn1cccn1)N1CCC(n2cc(C(C)(C)N)nn2)CC1 (centres undefined) | CoaBC: 1.733%; LiHisRS: 8%; Leishmania in macrophages: 21.09%
- COc1ccc(Cl)cc1C(C(=O)O)N(C)Cc1ccon1 (centres undefined) | CoaBC: 4.121%; LiHisRS: -6.25%; Leishmania in macrophages: -13.48%
- O=S(=O)(NCC1COc2ccccc2C1)N1CCCCCC1 (centres undefined) | CoaBC: 5.33%; LiHisRS: 17.65%; Leishmania in macrophages: -4.716%
- CN(CCCOc1ccccc1)C(=O)c1csc(-c2nnc[nH]2)n1 | CoaBC: 6.734%; LiHisRS: 24.47%; Leishmania in macrophages: 34.94%
- O=C1CCc2cc(OCCN3CCc4cncnc4C3)ccc2N1 | CoaBC: -2.689%; LiHisRS: 30.14%; Leishmania in macrophages: 41.19%
- COc1ccc(C2CCN(CCCC#N)CC2)cc1 | CoaBC: -5.596%; LiHisRS: -6.667%; Leishmania in macrophages: 41.91%
- CC(C)N1CCC2(CCCN(C(=O)c3cncn3C)C2)CC1 | LiHisRS: 15.38%
- Cc1c(C(=O)NC2(C#N)CCSC2)nnn1-c1ccccc1Cl (centres undefined) | CoaBC: 3.666%; LiHisRS: 32.35%; Leishmania in macrophages: -2.3%
- CC(=O)NC1CCCN(C(=O)CCc2cccnc2)C1 (centres undefined) | CoaBC: -21.69%; LiHisRS: 27.4%; Leishmania in macrophages: -33.21%
- CC(c1cccnc1)N(C)S(C)(=O)=O (centres undefined) | CoaBC: -2.427%; LiHisRS: 7.229%; Leishmania in macrophages: 25.95%
- COc1ccccc1OC1CN(Cc2ccc(C(=O)O)cc2)C1 | CoaBC: 1.098%; LiHisRS: 24.18%; Leishmania in macrophages: 7.178%
- Cc1cccc(CN2CCC3(CC2)CN(c2cccnc2)C(=O)CO3)n1 | CoaBC: -0.2469%; LiHisRS: 4.545%
- CCc1ccccc1NC(=O)N1CCn2cnc(COC)c2C1 | CoaBC: -1.762%; LiHisRS: 20.75%; Leishmania in macrophages: 8.298%
- COc1nc2ccccc2cc1CN1CCC(CNS(C)(=O)=O)C1 (centres undefined) | CoaBC: -4.701%; LiHisRS: 15.38%; Leishmania in macrophages: -2.424%
- c1cnc(NCc2cncc3c2CCN(Cc2cccs2)C3)nc1 | CoaBC: 14.51%; LiHisRS: 2.19%
- CCCC(=O)N(CCCN1CCOCC1)c1nc2c(Cl)cccc2s1 | CoaBC: 6.554%; LiHisRS: 13.91%
- CC(=O)Nc1nc(CN2CCCC2Cn2cc(C)cn2)cs1 (centres undefined) | CoaBC: 0.5128%; LiHisRS: 29.33%; Leishmania in macrophages: 13.53%
- COc1cc2cc(C)c(SCCN3CCCC3)nc2cc1OC | CoaBC: 10.72%; LiHisRS: 8.511%
- COc1cccc2cc(CNCc3ccc(N4CCCC4)nc3)oc12 | CoaBC: 20.83% and 20.1%; LiHisRS: 5.357%; Leishmania in macrophages: 18.43%
- COc1cnc(N2CCC(Oc3ccccc3OC)(C(=O)O)CC2)nc1 | CoaBC: 0.2151%; LiHisRS: 11.43%; Leishmania in macrophages: 16.13%
- CNC(=O)NCC1CCC2(CCN(C(=O)c3cccnc3)CC2)CO1 (centres undefined) | CoaBC: 2.716%; LiHisRS: 11.82%

Repeated from the top, 3 entries:

SMILES	CoaBC	LiHisRS	Leishmania in macrophages
CCOCC1CCN(C(=O)C(c2ccccc2F)N(C)C)CC1 (centres undefined)	7.407 and 50.36	37.7	31.73
Cl.Cn1nc(C2CCCN(Cc3cccc(F)c3)C2)c2nccnc21 (centres undefined)	-	-	28.88
COc1ccccc1-c1nnc2n1NC(N)=C(C#N)S2	4.304	10.53	-15.39 and 10.92